Where a name gives a salt, the structure may show the parent alone. The list shows a part of the results. Hit calls seldom repeat between salt and free forms of one compound.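 In K562 cells expressing nanoluciferase-fused kinases, luminescence was recorded at 4 h intervals between 2 and 18 h, normalized as percent of control with DMSO at 100% and a positive control at 0%. A significant (2 sigma) signal drop marks a time point as decreased. The authors' rule for a hit is not shown and takes in more than the number of time points.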
Molecular target: ALK (UniProt Q9UM73)
Assay: kinase-Nluc reporter destabilization hit call (1 = scored as downregulated) (binary); higher = compound decreases kinase abundance
Details: K562; 2-18 h

Amino acid sequences for entries named in this document (tags omitted). A change or cut given only in a name is not applied to a line headed by its entry.
UniProt Q9UM73: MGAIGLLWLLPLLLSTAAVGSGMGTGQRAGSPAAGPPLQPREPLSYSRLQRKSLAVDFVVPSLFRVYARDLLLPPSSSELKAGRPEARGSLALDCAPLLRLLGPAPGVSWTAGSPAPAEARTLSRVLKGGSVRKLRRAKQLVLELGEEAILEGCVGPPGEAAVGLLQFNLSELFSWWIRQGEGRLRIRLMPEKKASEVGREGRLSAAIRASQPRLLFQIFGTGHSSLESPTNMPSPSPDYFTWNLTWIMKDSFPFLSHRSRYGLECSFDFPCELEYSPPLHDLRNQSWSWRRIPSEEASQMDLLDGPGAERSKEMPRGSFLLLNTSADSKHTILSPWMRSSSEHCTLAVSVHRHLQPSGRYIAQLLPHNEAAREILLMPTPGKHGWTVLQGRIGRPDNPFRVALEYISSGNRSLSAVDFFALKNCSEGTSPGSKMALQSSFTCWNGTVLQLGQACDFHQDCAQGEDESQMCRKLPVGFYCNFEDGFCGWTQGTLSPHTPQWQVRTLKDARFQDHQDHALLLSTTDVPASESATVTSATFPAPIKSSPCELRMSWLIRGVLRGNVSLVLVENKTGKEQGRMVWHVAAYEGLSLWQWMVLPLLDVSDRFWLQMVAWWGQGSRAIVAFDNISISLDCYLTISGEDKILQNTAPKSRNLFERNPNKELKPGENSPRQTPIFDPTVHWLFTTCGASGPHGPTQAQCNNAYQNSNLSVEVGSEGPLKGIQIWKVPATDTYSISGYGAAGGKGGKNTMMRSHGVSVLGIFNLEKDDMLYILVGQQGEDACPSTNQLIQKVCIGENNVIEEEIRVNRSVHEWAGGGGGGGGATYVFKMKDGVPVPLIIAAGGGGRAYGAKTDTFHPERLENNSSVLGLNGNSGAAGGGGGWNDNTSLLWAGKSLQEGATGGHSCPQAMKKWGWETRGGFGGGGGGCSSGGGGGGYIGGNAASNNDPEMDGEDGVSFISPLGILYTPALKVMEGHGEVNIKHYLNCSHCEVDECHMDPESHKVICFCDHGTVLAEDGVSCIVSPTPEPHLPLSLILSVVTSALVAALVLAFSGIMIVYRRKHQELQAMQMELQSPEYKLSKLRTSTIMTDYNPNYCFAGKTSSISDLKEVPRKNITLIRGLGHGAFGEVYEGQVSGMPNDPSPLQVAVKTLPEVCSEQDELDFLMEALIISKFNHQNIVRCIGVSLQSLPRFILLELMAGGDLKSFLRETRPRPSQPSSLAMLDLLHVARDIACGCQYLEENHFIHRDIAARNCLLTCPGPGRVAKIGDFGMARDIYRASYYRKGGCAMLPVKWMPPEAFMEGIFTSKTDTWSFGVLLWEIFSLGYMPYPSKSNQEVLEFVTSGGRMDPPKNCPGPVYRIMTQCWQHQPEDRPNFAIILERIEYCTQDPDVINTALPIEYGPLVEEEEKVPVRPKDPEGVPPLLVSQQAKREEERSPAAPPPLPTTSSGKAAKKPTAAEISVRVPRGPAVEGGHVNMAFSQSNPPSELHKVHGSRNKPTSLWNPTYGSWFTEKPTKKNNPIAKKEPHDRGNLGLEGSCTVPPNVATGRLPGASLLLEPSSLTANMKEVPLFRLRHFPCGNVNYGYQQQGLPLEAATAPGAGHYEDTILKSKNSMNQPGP

kinase-Nluc reporter destabilization hit call, inactive:
O=S(=O)(c1cccc2cnccc12)N1CCNCC1 (10 µM) 0
COc1cc(C(C)=O)cc(OC)c1O [Acetosyringone] (10 µM) 0
CCOc1c([C@H](C)n2nc(C)c3c(N)ncnc32)cc(Cl)c(F)c1[C@@H]1CNC(=O)C1 [Parsaclisib (hydrochloride)] (10 µM) 0
CC[C@H](C)[C@H](NC(=O)[C@H](CCC(=O)O)NC(=O)[C@H](CCCN=C(N)N)NC(=O)[C@H](CCCN=C(N)N)NC(=O)[C@@H](N)CCCCN)C(=O)N[C@@H](CC(C)C)C(=O)N[C@@H](CO)C(=O)N[C@@H](CCCN=C(N)N)C(=O)N[C@@H](CCCN=C(N)N)C(=O)N1CCC[C@H]1C(=O)N[C@@H](CO)C(=O)N[C@@H](Cc1ccc(O)cc1)C(=O)N[C@@H](CCCN=C(N)N)C(=O)O [CREBtide] (10 µM) 0
O=C(O)CCc1ccc(NCc2cccc(Oc3ccccc3)c2)cc1 (10 µM) 0
O[C@H]1CC[C@H](Nc2ncc3nc(Nc4c(F)cc(F)cc4F)n([C@H]4CCOC4)c3n2)CC1 [Tanzisertib] (10 µM) 0
Oc1ccccc1C(=S)N1CCCC1 (10 µM) 0
CC[C@@H]1C(=O)N(C)c2cnc(Nc3ccc(C(=O)N[C@H]4CC[C@H](N5CCN(CC6CC6)CC5)CC4)cc3OC)nc2N1C(C)C [Volasertib] (2.5 µM) 0
C[C@@H]1O[C@@H](OC[C@H]2O[C@@H](Oc3cc(O)c4c(c3)O[C@H](c3ccc(O)cc3)CC4=O)[C@H](O)[C@@H](O)[C@@H]2O)[C@H](O)[C@H](O)[C@H]1O [Narirutin] (10 µM) 0
CCc1ccc(C(=O)COc2ccc(CC3SC(=O)NC3=O)cc2)nc1 (stereo not drawn) (10 µM) 0
Cc1ccc(-c2ccc3c(ccc4sc5c(c43)NC[C@@H](C)NC5=O)n2)cn1 (10 µM) 0
CC[C@H](Nc1ncnc2[nH]cnc12)c1oc2ccccc2c(=O)c1-c1cccc(F)c1 [Tenalisib] (10 µM) 0
CCCC(=O)Nc1nc2c(ncn2[C@@H]2O[C@@H]3COP(=O)(O)O[C@H]3[C@H]2OC(=O)CCC)c(=O)[nH]1 [Dibutyryl-cGMP (sodium)] (10 µM) 0
CC(C)c1cnn2c(NCc3ccccc3-n3cccn3)nc(OC3CCCNC3)nc12 (stereo not drawn) (2.5 µM) 0
OCCN(CCO)c1ccc(C(c2ccc(Cl)cc2)c2ccc(N(CCO)CCO)cc2)cc1 (10 µM) 0
CCCCNC(=N)NC(=N)N [Buformin (hydrochloride)] (2.5 µM) 0
Fc1c(Br)cccc1Nc1ncnc2cc3c(cc12)OCCO3 (2.5 µM) 0
Cc1cc(Nc2nc(N[C@@H](C)c3ncc(F)cn3)ncc2Cl)[nH]n1 (10 µM) 0
Cc1cc(Nc2cc(CN3CCOCC3)c3nc(C)c(Cc4ccc(Cl)cc4F)n3n2)n[nH]1 [Gandotinib] (2.5 µM) 0
COc1cc(N2CCC(N(C)C)CC2)ccc1Nc1ncc(Cl)c(Nc2ccccc2P(C)(C)=O)n1 (2.5 µM) 0
Nc1[nH]c(=O)nc2c1ncn2[C@@H]1O[C@H](CO)[C@@H](O)[C@H]1O [Crotonoside] (10 µM) 0
Cn1cc(-c2ccc(F)c(C(F)(F)F)c2)nc1C1CCN(c2ncnc3[nH]ncc23)CC1 (10 µM) 0
CCOc1ccccc1C=C1C(=O)Nc2ccccc21 (10 µM) 0
CC(C)(C)C(=O)N1N=CC[C@H]1c1ccccc1 (10 µM) 0
COc1ccc(CCNc2ncc3c(=O)n(-c4cccc(F)c4)c(=O)[nH]c3n2)cc1OC (2 µM) 0
Cc1ccc(-c2nn(C(C)(C)CNC(=O)c3ccncc3)c3ncnc(N)c23)cc1 (2.5 µM) 0
CNC(=O)c1ccc(-c2cnc3cnc(-c4ccccc4)cn23)cc1 (10 µM) 0
CCn1nc(C2CCN(C(=O)CCO)CC2)nc1-c1cnc(N)c(-c2nnc(C(C)(C)C)o2)n1 (10 µM) 0
CCCCCCCC/C=C\CCCCCCCC(=O)NCC(=O)O [N-Oleoyl glycine] (10 µM) 0
CC1(COc2ccc3c(c2)ncn3-c2ccc3cccc(N4CCC(N)CC4)c3n2)COC1 [Crenolanib] (2.5 µM) 0
CC(CCc1ccccn1)(CCc1ccccn1)C(=O)c1ccccc1 (10 µM) 0
COc1cc(-c2cc(-c3cc(OC)c(OC)c(OC)c3)cc(C(F)P(=O)(OCOC(=O)C(C)(C)C)OCOC(=O)C(C)(C)C)c2)cc(OC)c1OC (stereo not drawn) [Stafia-1-dipivaloyloxymethyl ester] (2.5 µM) 0
CC1(N)CCN(c2cnc3c(-c4cccc(Cl)c4Cl)[nH]nc3n2)CC1 (2.5 µM) 0
CC(C)(O)[C@@H]1CC[C@](C)([C@H]2[C@@H](O)C[C@@]3(C)[C@@H]4C[C@H](O[C@@H]5O[C@H](CO)[C@@H](O)[C@H](O)[C@H]5O)[C@H]5C(C)(C)[C@@H](O[C@@H]6OC[C@@H](O)[C@H](O)[C@H]6O[C@@H]6O[C@H](CO)[C@@H](O)[C@H](O)[C@H]6O)CC[C@@]56C[C@@]46CC[C@]23C)O1 [Astragaloside VI] (10 µM) 0
Cc1nc(NC(=O)NCCc2nnn(CCF)n2)sc1-c1ccc(S(C)(=O)=O)c(F)c1 (10 µM) 0
CCN(C)C(=O)c1ccc2c(C(=Nc3ccc(CN4CCCCC4)cc3)c3ccccc3)c(O)[nH]c2c1 (2.5 µM) 0
CC(=O)Nc1nc(C)c(-c2nc(N3CCCC(O)C3)no2)s1 (stereo not drawn) (10 µM) 0
COc1c(O)cc2oc3cc(O)c(CC=C(C)C)c(O)c3c(=O)c2c1CCC(C)(C)O [Garcinone D] (2.5 µM) 0

Quoted at random: 2 compounds from above
kinase-Nluc reporter destabilization hit call, inactive:
OCCN(CCO)c1ccc(C(c2ccc(Cl)cc2)c2ccc(N(CCO)CCO)cc2)cc1 (10 µM) 0
CC[C@@H]1C(=O)N(C)c2cnc(Nc3ccc(C(=O)N[C@H]4CC[C@H](N5CCN(CC6CC6)CC5)CC4)cc3OC)nc2N1C(C)C [Volasertib] (2.5 µM) 0

From the supplement of paper PMC12823440, “Inhibitors supercharge kinase turnover through native proteolytic circuits” (Nature, 2025)
